Results on two substances are retold here after PMC11913716.

By UniProt entry, the sequences of proteins in these tests, tags left out.
UniProt Q9Y6K9: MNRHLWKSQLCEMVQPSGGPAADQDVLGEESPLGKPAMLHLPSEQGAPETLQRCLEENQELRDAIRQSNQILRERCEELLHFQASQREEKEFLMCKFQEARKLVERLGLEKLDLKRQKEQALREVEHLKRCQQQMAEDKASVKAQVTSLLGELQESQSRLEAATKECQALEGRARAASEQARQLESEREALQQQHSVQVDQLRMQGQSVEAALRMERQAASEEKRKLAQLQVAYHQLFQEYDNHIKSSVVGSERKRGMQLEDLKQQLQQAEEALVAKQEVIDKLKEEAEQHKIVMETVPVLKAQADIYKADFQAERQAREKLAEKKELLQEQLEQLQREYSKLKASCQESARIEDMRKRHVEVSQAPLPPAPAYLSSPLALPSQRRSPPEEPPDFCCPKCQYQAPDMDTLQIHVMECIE

Assay [1] concerns the target HAdV-C5 E1B-55K wt expressed from pcDNA3 (HAdV-C5 (human adenovirus type C5)) (UniProt P03243). As to the kind of experiment: co-IP; H1299 co-transfected with E1B-55K and Flag-tagged IKK proteins, 48 h; immunoprecipitation with α-E1B-55K 2A6, blot with α-Flag M2.
The target of assay [2] is T1, Flag-tagged IKKα (human) (UniProt O15111).
T1 sequence: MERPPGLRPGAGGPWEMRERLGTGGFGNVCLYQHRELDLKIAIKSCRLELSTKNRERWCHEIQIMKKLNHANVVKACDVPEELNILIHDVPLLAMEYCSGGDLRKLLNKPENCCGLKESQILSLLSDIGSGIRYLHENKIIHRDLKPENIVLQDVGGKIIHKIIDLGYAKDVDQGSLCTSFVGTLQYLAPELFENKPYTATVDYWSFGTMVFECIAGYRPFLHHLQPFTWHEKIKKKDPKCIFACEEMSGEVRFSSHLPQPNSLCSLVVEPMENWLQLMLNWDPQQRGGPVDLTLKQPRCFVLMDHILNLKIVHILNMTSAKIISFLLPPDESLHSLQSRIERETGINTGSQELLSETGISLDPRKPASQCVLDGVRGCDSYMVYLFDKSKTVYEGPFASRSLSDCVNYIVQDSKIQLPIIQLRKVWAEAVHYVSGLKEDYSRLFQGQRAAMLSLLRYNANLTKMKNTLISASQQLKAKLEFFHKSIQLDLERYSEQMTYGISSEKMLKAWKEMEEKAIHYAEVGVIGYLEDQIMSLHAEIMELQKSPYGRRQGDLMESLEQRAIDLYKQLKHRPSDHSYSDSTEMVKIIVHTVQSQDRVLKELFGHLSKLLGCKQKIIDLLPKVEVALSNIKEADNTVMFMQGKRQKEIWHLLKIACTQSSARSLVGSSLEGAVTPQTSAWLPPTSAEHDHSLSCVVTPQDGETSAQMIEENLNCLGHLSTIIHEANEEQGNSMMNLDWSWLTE
As to the kind of experiment: co-IP; H1299 co-transfected with wt or mutant E1B-55K and Flag-tagged IKKα, 48 h; immunoprecipitation with α-Flag M2, blot with α-E1B-55K (7C11 or 2A6).

Results are given in words; binding and its absence hold for the method and conditions named. Binding seen in cells or lysates may run through a third protein. Some results given as binding are weak or reduced against the parent protein; the word gives no strength. For some assays here: Where a sequence is shown, tags or fusion partners need not be part of it.

In the case of “Flag-tagged NEMO (from UniProt Q9Y6K9 1-419)”, the binding result in assay [1] is recorded as “no binding”. As for “HAdV-C5 E1B-55K wt expressed from pcDNA3 (from UniProt P03243 1-496)”, the binding result in assay [2] is on record as “binds”.
